Taken from: PubChem BioAssay AID1053208 (Peter MacCallum Cancer Centre, 2014)
Assay: 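Genes whose silencing cuts survival of bone tumour cells only with doxorubicin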 (primary screen). Cells: mouse osteosarcoma cells, early-passage culture from an engineered mouse model of fibroblastic bone tumour. Reagents: siRNA pool against mouse genes, 40 nM. Time to read-out: about 120 h (48 h before drug, then 72 h with drug). Treatment: doxorubicin 100 nM for 72 h, roughly 30-40% inhibitory dose. Read-out: 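Viability read as ATP luminescence after 72 h of 100 nM doxorubicin or none, duplicate wells averaged, scaled to non-targeting siRNA, then expressed as robust z-scores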. Reading the numbers: viability z-score with doxorubicin: higher = more viable cells under doxorubicin; viability z-score without drug: higher = more viable cells with knock-down alone. Hit rule: 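Called active if knock-down leaves viability unchanged without drug (z within -2 to 2) but lowers it with doxorubicin (z at or under -2)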.
Here is an unselected part of about 17,000 reagents. In the full data, 788 (4.7%) got an active call. 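Calls rest on z-score classes alone; an extra cut-off of viability at most 70% of control was not applied to them.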 Entries without a mark were called inactive. Reagents against one gene are numbered here. A reagent listed more than once was tested more than once; the source does not tell the runs apart. Not all columns of the deposit are shown.

gene	reagent no.	combined z-score class	viability z-score with doxorubicin	viability z-score without drug
Sds	1	high cell count with and without drug	3.93	2.87
Ctse	1	no change with or without drug	1.12	-0.51
Cables1	1	no change with or without drug	-1.91	0.17
Msantd4	1	no change with or without drug	-1.12	-0.84
Samd4b	1	no change with or without drug	-1.24	-0.34
Zfp799	1	no change with or without drug	0.45	0.17
Ikbip	1	no change with or without drug	0	0.84
Ikbip	2	high cell count without drug only	0	2.53
Enam	1	no change with or without drug	-1.69	-0.17
Erich5	1	no change with or without drug	-0.45	-0.51
Frmd4b	1	no change with or without drug	1.12	1.18
Jph3	1	no change with or without drug	-0.11	0.17
Ndufv2	1	no change with or without drug	1.12	-1.52
Mtnr1b	1	no change with or without drug	0.22	0.67
Ccdc51	1	no change with or without drug	0	-0.17
Snx14	1	no change with or without drug	-0.67	0.17
Denr	1	no change with or without drug	0.22	0
Nosip	1	no change with or without drug	-1.8	0.51
Moxd2	1	no change with or without drug	0.22	0.67
Gmps	1	no change with or without drug	0.56	-0.84
Slfn1	1	no change with or without drug	-0.9	-0.51
Sf3b6	1	low cell count with and without drug	-6.52	-8.94
Tmem239	1	high cell count without drug only	-1.12	2.02
Flywch2	1	low cell count without drug only	-0.67	-3.71
Anapc15	1	no change with or without drug	0	0.17
Mettl18	1	no change with or without drug	0.67	-0.17
Gatad2a	1	no change with or without drug	-1.35	0.17
1700049L16Rik	1	no change with or without drug	-0.45	1.69
Prss3b	1	no change with or without drug	0.67	-0.17
Camk4	1	no change with or without drug	0.67	-1.18
Camk4	1	no change with or without drug	1.01	-0.17
Igfals	1	no change with or without drug	0.45	0.51
Prss37	1	no change with or without drug	0.45	1.18
Raet1d	1	no change with or without drug	0.67	-1.69
Bsx	1	no change with or without drug	-0.79	-0.17
Mdm2	1	no change with or without drug	1.35	-0.17
A930006J02Rik (retired record)	1	no change with or without drug	1.24	1.85
Crebbp	1	no change with or without drug	-0.9	-0.17
Xlr3a	1	no change with or without drug	-0.22	1.18
Ckm	1	no change with or without drug	0.45	-1.18
Efnb3	1	no change with or without drug	-0.22	0.51
Dcpp1	1	no change with or without drug	1.46	0.51
Dcpp1	2	low cell count with and without drug	-2.14	-2.7
Aif1	1	low cell count with doxorubicin only (active)	-2.02	-0.84
Scgb1b2	1	no change with or without drug	1.12	1.35
6030498E09Rik	1	no change with or without drug	0.45	0.34
Klhl5	1	no change with or without drug	0	0
Tirap	1	no change with or without drug	1.01	0.17
Pak4	1	no change with or without drug	0.22	-0.84
Or5b95	1	no change with or without drug	-1.24	-1.52

Records above called active, once more:
gene	reagent no.	combined z-score class	viability z-score with doxorubicin	viability z-score without drug
Aif1	1	low cell count with doxorubicin only (active)	-2.02	-0.84
